The values below come from PubChem BioAssay AID1794844 (National Center for Advancing Translational Sciences (NCATS), 2023).

Amino acid sequences for entries named in this document (tags omitted). A change or cut given only in a name is not applied to a line headed by its entry.
UniProt C7C422: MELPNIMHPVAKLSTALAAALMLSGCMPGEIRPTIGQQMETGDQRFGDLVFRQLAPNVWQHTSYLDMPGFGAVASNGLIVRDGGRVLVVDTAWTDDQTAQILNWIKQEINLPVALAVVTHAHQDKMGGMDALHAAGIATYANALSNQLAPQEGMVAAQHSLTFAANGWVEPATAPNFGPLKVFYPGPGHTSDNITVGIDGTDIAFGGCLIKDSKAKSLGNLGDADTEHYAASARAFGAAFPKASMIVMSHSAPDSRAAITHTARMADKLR

Hit rate of the full screen: of about 2,800 compounds, fewer than 10 were called active. Not shown: some 7% with an inconclusive outcome. The call rests on the fitted dose curve; in most records, active means well fitted inhibition curve with a large enough effect; inconclusive means small, poorly fitted or top-dose-only effect; inactive means no such curve, though single readings can be large or run the other way. This is one part of the list.

In this test the target is Metallo-beta-lactamase type 2 (Klebsiella pneumoniae) (UniProt C7C422). Description: qHTS to identify inhibitors of the New Delhi Metallo-beta-lactamase (NDM): Nitrocefin screen against the machine-based learning selections. Further: % of control where 0% means no effect. As to conditions: NDM-1 enzyme, nitrocefin hydrolysis, absorbance 485 nm; at 57.5 µM (top of the series) unless noted. In outline: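 NDM-1 (2 nM final) in 50 mM HEPES pH 7.0, 1 uM Zn2SO4, 0.01% Tween20 was preincubated with compounds for >30 min. Nitrocefin (16.7 uM final) was read at 485 nm after 15 min, and meropenem (50 uM final) at 300 nm after 30 min.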
For orientation: In qHTS, concentration-response curves come from the screen itself.
For the molecule `CN(CCc1ccccn1)C[C@H]1CN2CC[C@H]1C[C@@H]2CNC(=O)c1ccc(C(F)(F)F)cc1`, the activity, negative = inhibition was inactive: 1.27% [at 38.4 µM].
The result for `CCC(CC)c1cc([C@H]2CN3CC[C@H]2C[C@@H]3CNC(=O)COc2ccccc2)nc(-c2ccncc2)n1` reads inactive: 65.9% [at 38.4 µM]; that for `O=C(Cc1cccnc1)N1[C@H]2CC[C@@H]1c1cnc(-c3ccc(F)cc3)nc1C2`, inactive: -4.53% [at 38.4 µM].
The result for `C#C[C@H]1CN2CC[C@H]1C[C@@H]2CNC(=O)Nc1cccc(SC)c1` reads inactive: -8.11%.
Take `COc1ccc(C(=O)NC[C@H]2C[C@@H]3CCN2C[C@@H]3c2cc(-c3ccc(N(C)C)cc3)nc(C)n2)cc1`: the activity, negative = inhibition was inactive: 4.09% [at 38.4 µM].
On to `C#CCN(C)C[C@H]1CN2CC[C@H]1C[C@@H]2CNC(=O)Nc1ccc(C(C)=O)cc1`, for which the activity, negative = inhibition is inactive: 1.06%.
The result for `C=C[C@H]1CN2CC[C@H]1C[C@@H]2CNS(=O)(=O)c1cccs1` reads inactive: 11.5%; that for `CC(C)NC(=O)[C@H]1CN2CC[C@H]1C[C@@H]2Cn1cc(CO)nn1`, inactive: -2.26%; that for `O=C(NCc1ccc(F)cc1)[C@H]1CN2CC[C@H]1C[C@@H]2Cn1cc(C2(O)CCCC2)nn1`, inactive: 0.796%.
As to `Cc1nc(-c2ccco2)cc([C@H]2CN3CC[C@H]2C[C@@H]3CNC(=O)C(C)(C)C)n1`, the activity, negative = inhibition was inactive: 0.498%.
Regarding `Cc1nc(-c2ccccc2Br)cc([C@H]2CN3CC[C@H]2C[C@@H]3CNC(=O)c2cccs2)n1`, the activity, negative = inhibition is inactive: -0.933% [at 38.4 µM].
With `C=CCN(C)C(=O)[C@H]1CN2CCC1C[C@@H]2Cn1cc(CO)nn1` (some centres undefined), the activity, negative = inhibition was inactive: -7.21%.
On to `O=C1N(Cc2cccnc2)C[C@H]2CN(C3CCOCC3)CCN12`, for which the activity, negative = inhibition is inactive: -4.41%.
The result for `CCNC(=O)NC[C@H]1C[C@@H]2CCN1C[C@@H]2c1cc(C2CCCCC2)nn1C` reads inactive: 1.2%.
For `CCCS(=O)(=O)N1C[C@@H]2C[C@H](C1)c1ccc(-c3ccc4ccccc4c3)c(=O)n1C2`, the activity, negative = inhibition is inactive: -3.88%.
For the molecule `CC(=O)N1C[C@@H]2C[C@H](C1)c1ccc(NC(=O)Nc3ccccc3)c(=O)n1C2`, the activity, negative = inhibition was inactive: -10.9%.
On to `CCCS(=O)(=O)Nc1ccc(=O)n2c1[C@@H]1C[C@@H](CN(C(=O)c3ccc(F)cc3)C1)C2`, for which the activity, negative = inhibition was inactive: -2.95%.
As for `COCCNC(=O)[C@H]1CN2CCC1C[C@@H]2Cn1cc(CCO)nn1` (some centres undefined), the activity, negative = inhibition is inactive: 0.0925%.
Consider `O=C(O)c1cn(Cc2ccc(F)cc2)nn1`, for which the activity, negative = inhibition is inactive: -18.5% [at 38.4 µM].
With `O=C(NC[C@H]1C[C@@H]2CCN1C[C@@H]2CN1CCN(c2ccc(F)cc2)CC1)c1ccco1` the figure was inactive: 0.284%.
Consider `CC[C@H]1CN2CC[C@H]1C[C@@H]2CNS(=O)(=O)c1ccc(NC(C)=O)cc1`, for which the activity, negative = inhibition is inactive: 10.9%.
The result for `CCCCc1cn(C[C@H]2CC3CCN2C[C@@H]3C(=O)NCc2ccc3c(c2)OCO3)nn1` (some centres undefined) reads inactive: -7.49%.
With `CC(C)(C)c1ccc(NC(=O)OC[C@H]2C[C@@H]3CCN2C[C@@H]3c2cc(C3CCCC3)nc(-c3ccncc3)n2)cc1` the figure was inactive: 13.3% [at 38.4 µM]; with `O=C(Cc1ccc(F)cc1Cl)N1C[C@H]2CC[C@@H]1CN(Cc1cccnc1)C2`, inactive: -6.78% [at 38.4 µM]; with `CC[C@H]1CN2CC[C@H]1C[C@@H]2CNC(=O)c1ccc(-c2ccccc2)cc1`, inactive: -0.226%.
Consider `C=C[C@H]1CN2CC[C@H]1C[C@@H]2CNC(=O)Nc1ccc(C(C)(C)C)cc1`, for which the activity, negative = inhibition was inactive: -15%.
As for `Cc1nc(-c2ccc(C(F)(F)F)cc2)cc([C@H]2CN3CC[C@H]2C[C@@H]3CNC(=O)N2CCOCC2)n1`, the activity, negative = inhibition was inactive: 1.53% [at 38.4 µM].
The result for `Cn1nc(-c2ccccc2)cc1[C@H]1CN2CC[C@H]1C[C@@H]2CNC(=O)c1ccco1` reads inactive: -7.49%.
Regarding `CCNC(=O)NC[C@H]1C[C@@H]2CCN1C[C@@H]2c1cc(-c2ccc(F)cc2)nn1C`, the activity, negative = inhibition is inactive: 0.558%.
